Results reported in US20240309093A1.

Target: recombinant monkey PD-1-his protein (monkey)
Assay: ELISA; PD-1-his coated 2 µg/mL, anti-human IgG-HRP

binding: binds
B1: MHPD1-A Fc (Fc fusion, not shown: a dimerising Fc or GST)
chain: QVQLVESGGGSVQVGGSLTLSCAASGSDPSIYAMGWFRQAPGKEHEFVAGIGWSAATTYYADSVKGRFGISRDNTKNTVALLMNSLKPEDTAIYYCAADLDHSGFDYWGQGTQVTVSS

No constants are given. Whether binding was seen depends on the method and setting. A result given as binding can be weak or reduced; the word gives no strength. Tags and fused reporters may be left off the sequences shown.
